# Hit rate of the full screen: of about 31,000 sequences, about 1,400 (4.5%) were called active.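 How the source made its calls: active means median seed-adjusted z-score above 1 or below -1; inactive means the rest.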 Some of the results follow.
# Assay: Novel Modifiers of Survival Motor Neuron (SMN) Protein: Gene Identification via Genome-wide siRNA Screen;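 further: luminescence tracks full-length SMN protein made from the SMN2 reporter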
# Conditions: HEK293T SMN2-luciferase reporter, siRNA knockdown, 72 h; actives lie on both sides
# Outline: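 Luciferase signal, proportional to full-length SMN made from an SMN2 cDNA reporter in stable HEK293T cells, was read 72 h after siRNA reverse transfection. Values were expressed as MAD scores after non-targeting-control normalization and log10 conversion; seed analysis flagged off-targets.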
row,Sequence,median seed-adjusted z-score
1,CUACAACUGUGGAGGUCUATT against LIN28,inactive: -0.348
2,CCUAAAACCUAGUAAUCUATT against MAPK14,inactive: 0.142
3,CAAUCAAUGGAGAAGAUAUTT against NFYB,inactive: -0.29
4,GGAUACUAUUGCUAAGGUATT against RECK,inactive: -0.000321
5,CAUCAAUUCUAGAUCUUCATT against KERA,inactive: 0.238
6,GCCGAGCUCUUUAUCCUCUTT against TRHDE,inactive: 0.429
7,GUAAGUUACAAGAACGGAATT against DYNC2H1,inactive: -0.613
8,AAGCGGAGCUGGUACCUUATT against POMGNT1,inactive: -0.0431
9,GAAUAACCCAAGUCGCUAUTT against BRIP1,inactive: 0.312
10,GCCCAUUGGAUAUCAGUAUTT against STRADB,inactive: 0.21
11,GCUUUACAACAAUCACAUATT against AMIGO2,inactive: -0.258
12,GGAUUAUAUCGUGAACCUUTT against ZNF285A,inactive: 0.148
13,GCUUCAGCUCCAAAACCAATT against ZNF467,inactive: 0
14,GGACAUUCGGGAACAGUCUTT against RIN1,inactive: -0.0694
15,GCUAUUGUCAAUAAGGAUATT against ZFPM2,inactive: 0.087
16,GGUUGCAAGAGGACUCUUATT against DUS4L,inactive: 0.525
17,GCUAGUGCGUUUCUCUAUATT against CATSPER2,inactive: -0.653
18,GGUAAAGAGAGCAAAAAGATT against EHD1,inactive: -0.616
19,GUUCCAAACUUAUUACGCATT against ZNF544,inactive: -0.00739
20,GCAUCUACCUAGGAGACAATT against LRAT,inactive: 0.345
21,ACUCCUCUCUGUUAAUGGATT against LIN7C,inactive: 0.021
22,CUAUCUUUUCGGUUGUGAATT against NPM1,inactive: 0.141
23,UGUCCUUGGUGAUAGAAAUTT against CITED2,inactive: -0.0248
24,GCUUCCAACUGCUUAUAUATT against TP53RK,inactive: 0
25,CCUUGAAUGUCUACCACAATT against GNPNAT1,inactive: 0.313
26,GAUUGAUAGCUGUACGUAUTT against CBL,inactive: -0.417
27,GCAUGAACCCGGUGAUCUATT against CCR3,inactive: -0.334

# Single values from above.
# In median seed-adjusted z-score, GCAUCUACCUAGGAGACAATT against LRAT has inactive: 0.345
# In median seed-adjusted z-score, GGAUACUAUUGCUAAGGUATT against RECK has inactive: -0.000321
# In median seed-adjusted z-score, GCUUCCAACUGCUUAUAUATT against TP53RK has inactive: 0

# Next entries.

row,Sequence,median seed-adjusted z-score
1,AAAUCACACCAAACACUUATT against STX11,inactive: -0.518
2,GGGCAGAAGUUCAUCAGGATT against PIK3R5,inactive: 0.799
3,CCAAACAAGAGAUCUCUGATT against KRT75,inactive: 0.0773
4,GGCAGAGCCUGUUACCUGATT against RGS11,inactive: 0
5,CGAAGGAUGGUCCCAAAUATT against CAPN13,inactive: 0.208
6,CCAUCGCACAACCCAAAAATT against CLDN8,inactive: 0.542
7,CCGUAUGCAGCACAAGAAATT against SOX10,inactive: -0.255
8,GAAACAUCAUUUUUGCGAATT against THBS4,inactive: -0.28
9,GGGCGGUACUUUACAACUATT against KCTD9,active: 1.31
10,GAAAAUUUAUGGAUCUUGUTT against E2F6,inactive: -0.299
11,AGAUGUCCUACACCACAUATT against REXO1,inactive: -0.748
12,CCAUGGUGAACGACAGAAATT against SPRED2,inactive: -0.749
13,GGUCGACUGUUUCUACACUTT against MAP2K3,inactive: 0.365
14,GCCCGUCAUUGAAAUGAGATT against BTN2A3,inactive: -0.483
15,CACCGUAUCCAGCACAUUATT against EYA1,inactive: 0.0838
16,CACCUGAAAUAUCACAAUUTT against SLC15A2,inactive: 0.322
17,GGGCGGUAUUGAUCCACUATT against RCOR2,inactive: -0.129
18,ACAAUUAUUGGAAAGAGAATT against SPRYD5,inactive: 0.151
19,CUACCAGCCCUACACCAUUTT against CCL1,inactive: 0.537
20,CGAAGAGGCUAUCAAAGGATT against ELAVL3,inactive: -0.151
21,CCAUUAAGGUGGAGUGUUATT against CPNE3,inactive: 0.109
22,UAAGAACUCUUUUCGAGGATT against EXOSC1,inactive: 0.0508
23,CGCCUUCCGCGACAAGUUUTT against CHST8,inactive: 0.341
24,CCAUGACGAUGGGACCUAUTT against NELL1,inactive: -0.466
25,GAAUGGAGGUCAACUAUAUTT against UBE2E2,active: -1.77
26,GGCUAUACGGUGAAAAUCATT against CACYBP,inactive: -0.33
27,CAUCGGAACUGCAAUGUUATT against METTL5,inactive: 0.221

# Source: PubChem BioAssay AID1347426 (Functional Genomics Laboratory (NCATS/FGL), 2020)
